Results reported in patent US20230220206A1, “REJUVENATING AGENTS FOR ASPHALT RECYCLING” (BASF SE, priority 2020, published 2023).

Test: Ability to rejuvenate bitumen 20/30 (judged from softening point, viscosity, MSCR)
Assay type: physicochemical
Conditions: 5% compound, elastic recovery

| Molecule | ability to rejuvenate bitumen 20/30 (in words) |
| --- | --- |
| CC(COCC1CO1)(COCC1CO1)c1ccccc1 (stereo not drawn) [2-Methyl-2-phenyl-1,3-propandiol bis glycidylether] | very well rejuvenating |
| CCCCCCCCCCCCc1ccc(S(=O)(=O)O)cc1 [Dodecylbenzene sulfonic acid] | hardened the bitumen |
| CC(C)CCCCCCOC(=O)C1CCCCC1C(=O)OCCCCCCC(C)C (stereo not drawn) [Hexamoll ® DINCH, diisononyl cyclohexane-1,2-dicarboxylate] | could soften bitumen 20/30 quite well |
| CCCCCCCCCCCCN1CCCC1=O [N-Dodecyl pyrrolidone] | worked very well |
| CC(C)(COCC1CO1)COCC1CO1 (stereo not drawn) [Neopentylglycol bis glycidylether] | very well rejuvenating |
| CC(C)CCCCCCOC(=O)c1ccccc1C(=O)OCCCCCCC(C)C [Palatinol ® DINP, diisononyl phthalate] | could soften bitumen 20/30 quite well |
| Dodecenyl succinic acid anhydride | very well rejuvenating |
| Polyethylenglycol bis glycidylether | just slightly rejuvenated |
| Polypropylenglycol bis glycidylether | very well rejuvenating |
